Data from article PMC7819943, “Rice protein-binding microarrays: a tool to detect cis-acting elements near promoter regions in rice”.
The list shows a part of the results.

Protein sequences, listed by entry. Tags and fused reporters are not part of them.
UniProt Q0JBA9, entry or part of it: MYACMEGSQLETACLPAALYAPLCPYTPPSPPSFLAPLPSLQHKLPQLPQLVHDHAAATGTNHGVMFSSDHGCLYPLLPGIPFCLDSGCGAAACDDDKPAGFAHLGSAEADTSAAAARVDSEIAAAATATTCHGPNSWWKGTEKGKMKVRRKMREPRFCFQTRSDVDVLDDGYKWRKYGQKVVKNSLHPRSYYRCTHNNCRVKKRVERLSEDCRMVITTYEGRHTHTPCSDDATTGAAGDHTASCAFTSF

The sequences below were run against OsWRKY34 (Oryza sativa, UniProt Q0JBA9 1-250) (assay: protein-binding microarray (RPBM); PBS, 2% BSA, 51.3 ng/ul salmon testes DNA, 50 uM zinc acetate, 200 nM TF, 25 C, 1 h; high values mean tight binding). Details: protein: recombinant; tags: N-terminal polyhistidine and DsRed monomer fusion (pET32a); label: CyDye5-dUTP incorporated in the synthesized complementary strand; 3' TTTTT single-stranded linker to array surface; dsDNA, one strand shown.
Method in brief: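 Binding signal is reported as fluorescence intensity per feature (arbitrary units) from an Axon 4000B scanner. Incubation used 200 nM of each Ni–NTA-purified, N-terminally polyhistidine- and DsRed-fused transcription factor from E. coli BL21-CodonPlus on a double-stranded custom Agilent array for 1 h at 25 °C, with 50 µM zinc acetate in the buffer, followed by washing.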
With “GACTACATTTACTTGGTCACTTTTCTTGAATACACTTCCCCGGAGTCACCTAGTGCAG” the binding signal was 9330 fluorescence intensity (a.u.). “GGCTCGGCTCGCGTCCTCTTCCTCCTCGCATCGCATCGCACGGAGTCACCTAGTGCAG” was tested, and the binding signal was 8560 fluorescence intensity (a.u.). In the case of “GAAATCTTTTACGGTGGTGATACATTATATATTGATAGATCGGAGTCACCTAGTGCAG”, the binding signal is reported as 8340 fluorescence intensity (a.u.). In the case of “CTTTTCGTAACCCTTTCAGCAATTCTAGTCATTGATGATTCGGAGTCACCTAGTGCAG”, the binding signal is reported as 9090 fluorescence intensity (a.u.). In the case of “CCTCCACACCTACCAACCCTACTGTCACTAATAAATCATTCGGAGTCACCTAGTGCAG”, the binding signal is reported as 8350 fluorescence intensity (a.u.). With “ATGGTTGCTTGTATGGTGGATCCTTGCTATTGAATTGGAGCGGAGTCACCTAGTGCAG” the binding signal was 11000 fluorescence intensity (a.u.). With “TTCTTTTCGTCTTTTTTTACATGGGATCGGATTCATTTTTCGGAGTCACCTAGTGCAG” the binding signal was 9690 fluorescence intensity (a.u.). For “TCCATCTCATCTCATTCGTCCATCCGCCATCTCATCTAATCGGAGTCACCTAGTGCAG”, the binding signal was 8580 fluorescence intensity (a.u.). In the case of “CCACTGCCCTGTCTTTGCACACATCAGTCTTCCCGGAGTTCGGAGTCACCTAGTGCAG”, the binding signal is reported as 8640 fluorescence intensity (a.u.). In the case of “GAGGAGGCAAATGGGGAGGGGAAGCGATCGGAGGAGGCGGCGGAGTCACCTAGTGCAG”, the binding signal is reported as 8320 fluorescence intensity (a.u.). “GTAGATGGAGAGGGTATTGTAGCAGGATGTTACTGTGATACGGAGTCACCTAGTGCAG” was tested, and the binding signal was 8190 fluorescence intensity (a.u.). With “ACCACAAACTAATTATAGGTGCATACTTTCTATTTGCGCACGGAGTCACCTAGTGCAG” the binding signal was 9210 fluorescence intensity (a.u.). In the case of “GTCGGATATCGTGTCATGTTTCCCATTGCCATCTCTAGTCCGGAGTCACCTAGTGCAG”, the binding signal is reported as 9440 fluorescence intensity (a.u.). For “AGCACCCAAGTCCCACTATATCAAGTCCAAACCTATCCTCCGGAGTCACCTAGTGCAG”, the binding signal was 8340 fluorescence intensity (a.u.). With “GGTAAGGGAAACCATGGGGTGGGCTACGCTTGCAATGCTCCGGAGTCACCTAGTGCAG” the binding signal was 8370 fluorescence intensity (a.u.). For “GACATTTCACTTTGAACCATACTTTTCCTAATCTGTTTTACGGAGTCACCTAGTGCAG”, the binding signal was 11400 fluorescence intensity (a.u.). With “CTCTTTTCTTTCTTTTCTTTTCCTTTCTTTTTCCTTTCTTCGGAGTCACCTAGTGCAG” the binding signal was 8540 fluorescence intensity (a.u.). “CTCTTCATTCCATCCATCCATGCATTCATGTATTTAATGACGGAGTCACCTAGTGCAG” was tested, and the binding signal was 8110 fluorescence intensity (a.u.). With “ACGGTGTATATTTGTGGTGTGGCGGGTGTGGCATTGGATTCGGAGTCACCTAGTGCAG” the binding signal was 16700 fluorescence intensity (a.u.). “CAATCAAATCATAACTTCACAGCTCCTGTTCTCACATTATCGGAGTCACCTAGTGCAG” was tested, and the binding signal was 8520 fluorescence intensity (a.u.). In the case of “GGATGTGCTTTTCCTGACATGTATTTTATTATGCTATTGCCGGAGTCACCTAGTGCAG”, the binding signal is reported as 9400 fluorescence intensity (a.u.). In the case of “TGAGAGAGAATCTGTGCCTGTAAATGGGGTAGGTAAAGAACGGAGTCACCTAGTGCAG”, the binding signal is reported as 8150 fluorescence intensity (a.u.). In the case of “TATGAGTGTGTGACTGTGTGTGAGTGTGTCATGACTTTTGCGGAGTCACCTAGTGCAG”, the binding signal is reported as 8940 fluorescence intensity (a.u.). With “CGCGCCACGGGCACCCGCTCTCTCGCGCCTACTCTCTCTCCGGAGTCACCTAGTGCAG” the binding signal was 11200 fluorescence intensity (a.u.). For “CACATTACAACTACCTTGATTGGAGGCTTCTCATATTATACGGAGTCACCTAGTGCAG”, the binding signal was 9190 fluorescence intensity (a.u.). For “TCTTTTTTTTTTCTTTTTGCAGTACTTTGTACCAGTAATTCGGAGTCACCTAGTGCAG”, the binding signal was 8420 fluorescence intensity (a.u.). With “GTATATGTTTGTCTCGAAAATCCTTTTTTTTGGCTATTTACGGAGTCACCTAGTGCAG” the binding signal was 8810 fluorescence intensity (a.u.). For “CAGGATATATAGTTCTGTTGAGTAGTTTTATGTGGTAATCCGGAGTCACCTAGTGCAG”, the binding signal was 8620 fluorescence intensity (a.u.). For “ATCAACTAAGCAATCGTTTCCTTATGTTCCTCGTATGCAACGGAGTCACCTAGTGCAG”, the binding signal was 9460 fluorescence intensity (a.u.). In the case of “GAACTTATTCCACCCACTATCCAGACACCAAGTGACCGAGCGGAGTCACCTAGTGCAG”, the binding signal is reported as 8310 fluorescence intensity (a.u.). With “ATATAAATTGTGCAATTATTTTTTTTCGTCCACATTTAATCGGAGTCACCTAGTGCAG” the binding signal was 10000 fluorescence intensity (a.u.). With “GACCGGACGCTTGAGACCGCTGACCTTTGACCCGCATGATCGGAGTCACCTAGTGCAG” the binding signal was 11400 fluorescence intensity (a.u.). With “TTCTTCTCCTTTTTTTGCTTCGAATTTTCGGTGTCGATCTCGGAGTCACCTAGTGCAG” the binding signal was 8100 fluorescence intensity (a.u.). For “CTGGCATCGTCCTTCTTGTACCCCGACGACCAACTGCTCTCGGAGTCACCTAGTGCAG”, the binding signal was 10400 fluorescence intensity (a.u.). With “CGCTCATACTTTCTGTGTTCCACAACTCTGTGTTTGGTTTCGGAGTCACCTAGTGCAG” the binding signal was 9240 fluorescence intensity (a.u.). With “ATTGTTCATTTGTCGTTCCATTACATGTAACTTCACTTCACGGAGTCACCTAGTGCAG” the binding signal was 17000 fluorescence intensity (a.u.). In the case of “TGAATCTCCTTGTTAAATAACTCTCTACTCTCGCCTGACACGGAGTCACCTAGTGCAG”, the binding signal is reported as 8050 fluorescence intensity (a.u.). In the case of “ATGGACCACAGCCCCACCACCCCAGTTTTGCCACCTCCTTCGGAGTCACCTAGTGCAG”, the binding signal is reported as 10200 fluorescence intensity (a.u.). In the case of “TAATATTTAATTAATCTCACTATAATCGTGTGTTTCGTTTCGGAGTCACCTAGTGCAG”, the binding signal is reported as 8570 fluorescence intensity (a.u.). In the case of “CGCCCACACCGCGAACTGCAGCACCGGCGCCACCGCCCGCCGGAGTCACCTAGTGCAG”, the binding signal is reported as 8180 fluorescence intensity (a.u.). For “AGCCCATGTCTAGATTCATATCCAGAGCTTTTACTTCTTACGGAGTCACCTAGTGCAG”, the binding signal was 11100 fluorescence intensity (a.u.). With “TGAATTAGCGATCATGTTCAGTAACTTGTCTATCTGTTTTCGGAGTCACCTAGTGCAG” the binding signal was 8030 fluorescence intensity (a.u.). In the case of “AATTTAATTGCGAGGGCGAGTACTTGTCTGTTTACCTTTTCGGAGTCACCTAGTGCAG”, the binding signal is reported as 8450 fluorescence intensity (a.u.). For “TAGGATTCGATCCCACGTCCCGGTTCTTTCGCGTCCATCCCGGAGTCACCTAGTGCAG”, the binding signal was 8520 fluorescence intensity (a.u.). In the case of “CACCCGCTTTTATACCCACACCCTCTCTCTCTCTCTCTCTCGGAGTCACCTAGTGCAG”, the binding signal is reported as 8810 fluorescence intensity (a.u.). “GACCGTTCGCTATCCTCCTGCAACTTCACATTCTCTGCCACGGAGTCACCTAGTGCAG” was tested, and the binding signal was 12900 fluorescence intensity (a.u.). “TCCATTTTCACCTATCTCATATGTATTTATCTCTAATTTTCGGAGTCACCTAGTGCAG” was tested, and the binding signal was 9830 fluorescence intensity (a.u.). With “TCCTCCGGCTTATCTCCTCGCGAGCCACGAGGCGCCTACACGGAGTCACCTAGTGCAG” the binding signal was 8300 fluorescence intensity (a.u.). In the case of “TTGCCTCTTTTTTTTTTTTGGCGCACCTCGATTAGTAGTACGGAGTCACCTAGTGCAG”, the binding signal is reported as 12400 fluorescence intensity (a.u.). “TACGACTACCTGTGGCTCCGCATCTCGCCGTCTTCAACTCCGGAGTCACCTAGTGCAG” was tested, and the binding signal was 10400 fluorescence intensity (a.u.). With “CGCCATCACCCCAATCGCTGCTGCGCCGTCGCCACAGGTTCGGAGTCACCTAGTGCAG” the binding signal was 9250 fluorescence intensity (a.u.). In the case of “GCCATCAAGCTACGCCATTCAGCATTGCAACGACGACGTCCGGAGTCACCTAGTGCAG”, the binding signal is reported as 64300 fluorescence intensity (a.u.). “TCTCTTCTAATCCGCTCTCAGTAGATTTACCCCGTACTTACGGAGTCACCTAGTGCAG” was tested, and the binding signal was 9130 fluorescence intensity (a.u.). In the case of “TCTTCTTCTTCATCCTGTTGTTTGCATCCTGTATGTCGCACGGAGTCACCTAGTGCAG”, the binding signal is reported as 9720 fluorescence intensity (a.u.).
